# Reference: PubChem BioAssay AID1487 (National Center for Advancing Translational Sciences (NCATS), 2009)
# The list shows a part of the results. The main result of the screen is listed elsewhere. These columns were measured beside it and carry no call. Most of these compounds were active or inconclusive in the main read-out, so they are no random draw. Words in brackets tell the shape of the fitted curve; partial curves, single points and poor fits give uncertain potencies.
# Assay: qHTS Assay for Modulators of Lamin A Splicing
# Settings: HeLa LMNA splicing GFP/RFP minigene ratio, 48 h
# How it was run: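 S3 HeLa cells stably expressing lamin A-EGFP splicing minigene plus DsRed2, 600 cells/well, 48 h compound exposure at 37C. Laser-scanning cytometry; analysed as GFP (500-530 nm)/RFP (575-640 nm) total intensity ratio; 0.5% DMSO vehicle.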
# [1] = measured here: GFP splicing reporter channel
# [2] = measured here: RFP viability control channel
SMILES,AC50 [1],AC50 [2]
C/C(=N\n1cnnc1)c1ccc(C#N)cc1,"3.98 µM [rising, single point]","3.55 µM [rising, partial curve]"
COc1ccc(/C=N/NC(=O)CCN2CCN(c3ccccc3)CC2)c(OC)c1OC,,"3.98 µM [rising, partial curve, poor fit]"
CC(C)(C)C(=O)CNS(=O)(=O)c1ccc(S(=O)(=O)NC2CCCC2)cc1,,"31.6 µM [rising, single point]"
COC1=C(Nc2ccc(OC)cc2)C(=O)c2ccccc2C1=O,"20 µM [rising, partial curve]","35.5 µM [rising, partial curve]"
O=c1ccc2cc3c4c(c2o1)CCCN4CCC3,"0.00447 µM [falling, full curve, poor fit]","0.00447 µM [falling, full curve, poor fit]"
O=c1cnn([C@@H]2O[C@H](CO)[C@@H](O)[C@H]2O)c(=O)[nH]1,"5.62 µM [rising, partial curve, poor fit]","0.224 µM [rising, full curve]"
Cc1ccc(NC(=O)/C=C\C(=O)N(c2ccc(C(C)C)cc2)C(C(=O)NCc2ccco2)c2ccc(F)cc2)cc1 (centres undefined),"0.251 µM [falling, full curve, poor fit]","0.2 µM [falling, full curve, poor fit]"
COc1cccc(-c2ccc(C#N)c(SCC(=O)NCc3ccco3)n2)c1,"0.00316 µM [rising, full curve, poor fit]",
COC(=O)C1=C(O)C(C(=O)OC)C(c2ccc(C)cc2)C(C#N)(C#N)C1c1ccc(C)cc1 (centres undefined),,"6.31 µM [rising, full curve]"
COc1cc(C(=O)NCC(=O)N/N=C(/C)c2ccc3c(c2)CCCC3)cc(OC)c1OC,,"2.24 µM [rising, partial curve, poor fit]"
CCCCNC(=S)Nc1ccc(SC(F)F)cc1,,"10 µM [rising, partial curve, poor fit]"
CCN(CC)S(=O)(=O)c1ccc(N=NC2=C(O)CC(C)(C)CC2=O)cc1,"2.51 µM [rising, partial curve]",
O=C(C/C=N\OCc1ccc([N+](=O)[O-])cc1)Nc1ccc(Cl)cc1,"35.5 µM [falling, partial curve, poor fit]","7.94 µM [falling, partial curve]"
COc1ccc(CNC(=O)CC2C(=O)NCCN2CC(C)(C)C)c(OC)c1 (centres undefined),"22.4 µM [rising, partial curve, poor fit]",
CN(C)c1ccc(NC(=O)CSc2n[nH]c(-c3ccco3)n2)cc1,,"0.0398 µM [falling, full curve, poor fit]"
Cc1ccc(S(=O)(=O)CCSc2cccc(C(=O)Nc3ccccc3C(=O)O)c2)cc1,,"35.5 µM [rising, single point]"
c1ccc(C2Oc3ccccc3C3CC(c4cccs4)=NN32)cc1 (centres undefined),,"12.6 µM [rising, partial curve]"
CCN=c1scc(C)n1/N=C/c1cc(Br)c(O)c(OC)c1,,"35.5 µM [rising, single point]"
COc1cccc(NC(=S)N/N=C2\CC(C)(C)Oc3ccc(O)cc32)c1,,"10 µM [rising, partial curve]"
CCN(CC)C(=O)C1CCN(S(=O)(=O)c2c(C)noc2/C=C/c2cccc(OC)c2)CC1,"35.5 µM [falling, single point]","35.5 µM [falling, single point]"
O=C(CCCCCNc1nc(=S)[nH]c2ccccc12)NCCc1c[nH]c2ccccc12,"1 µM [falling, partial curve]","1.41 µM [falling, full curve, poor fit]"
CCCCc1ccc(NC(=S)N2CCC(O)CC2)cc1,,"6.31 µM [falling, single point]"
O=C(CCc1ccccc1)NNC(=S)NC(=O)c1ccc(Cl)cc1,,"31.6 µM [rising, single point]"
COc1ccc2c(c1)CCc1c(C(=O)Nc3c(C)nn(Cc4ccccc4)c3C)noc1-2,,"11.2 µM [rising, single point]"
O=C(NCCOc1cccc(Cl)c1Cl)c1cc(-n2cnnc2)ccc1Cl,"7.94 µM [rising, partial curve]","14.1 µM [rising, partial curve]"
COc1ccc(/C=N/NC(C)(C)C)c(OC)c1,"0.00316 µM [falling, full curve, poor fit]","0.158 µM [falling, full curve, poor fit]"
CCOc1ccc(NC(=O)c2cc(S(=O)(=O)NC3CCCCCC3)ccc2F)cc1,,"14.1 µM [rising, partial curve, poor fit]"
O=C(c1cccs1)N(Cc1nc2sc3c(c2c(=O)[nH]1)CCCC3)C1CCCC1,,"0.631 µM [rising, full curve]"
Brc1ccc2nc(-c3cccs3)c(NCC3CCCO3)n2c1 (centres undefined),"14.1 µM [rising, single point]",

# For reference, part of the list above.
SMILES,AC50 [1],AC50 [2]
O=C(NCCOc1cccc(Cl)c1Cl)c1cc(-n2cnnc2)ccc1Cl,"7.94 µM [rising, partial curve]","14.1 µM [rising, partial curve]"
COc1ccc(/C=N/NC(C)(C)C)c(OC)c1,"0.00316 µM [falling, full curve, poor fit]","0.158 µM [falling, full curve, poor fit]"
